Source: publication PMC8980085
These are yes or no findings as the source states them, for the method shown. In cells and extracts the contact can be indirect. Some results given as binding are weak or reduced against the parent protein; the word gives no strength.

Amino acid sequences for entries named in this document (tags omitted).
UniProt O96013: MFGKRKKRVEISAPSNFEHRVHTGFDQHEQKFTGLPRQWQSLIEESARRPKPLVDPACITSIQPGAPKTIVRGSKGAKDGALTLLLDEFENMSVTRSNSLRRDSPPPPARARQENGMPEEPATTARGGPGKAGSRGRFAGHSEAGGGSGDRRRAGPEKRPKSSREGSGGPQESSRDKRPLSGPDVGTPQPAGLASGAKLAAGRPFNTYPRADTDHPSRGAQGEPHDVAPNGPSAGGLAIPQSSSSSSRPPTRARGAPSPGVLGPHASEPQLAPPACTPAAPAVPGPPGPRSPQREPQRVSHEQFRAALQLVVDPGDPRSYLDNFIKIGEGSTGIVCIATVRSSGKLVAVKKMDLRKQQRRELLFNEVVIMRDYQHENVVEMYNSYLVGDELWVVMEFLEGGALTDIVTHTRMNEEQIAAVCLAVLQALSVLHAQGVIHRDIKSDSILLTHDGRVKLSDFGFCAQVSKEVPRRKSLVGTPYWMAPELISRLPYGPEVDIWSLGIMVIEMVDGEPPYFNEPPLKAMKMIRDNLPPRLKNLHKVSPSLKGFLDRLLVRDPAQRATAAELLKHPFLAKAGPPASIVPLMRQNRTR
UniProt P28482: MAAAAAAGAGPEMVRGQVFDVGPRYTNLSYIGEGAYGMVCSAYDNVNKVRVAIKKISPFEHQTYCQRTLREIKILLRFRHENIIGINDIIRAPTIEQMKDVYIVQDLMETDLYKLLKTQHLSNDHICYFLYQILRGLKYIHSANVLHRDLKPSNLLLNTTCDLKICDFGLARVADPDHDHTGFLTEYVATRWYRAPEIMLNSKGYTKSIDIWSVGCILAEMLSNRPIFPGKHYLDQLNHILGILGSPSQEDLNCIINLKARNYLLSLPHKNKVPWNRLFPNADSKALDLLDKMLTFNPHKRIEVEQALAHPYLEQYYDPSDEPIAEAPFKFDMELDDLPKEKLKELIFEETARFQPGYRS

Biological target: p21-activated kinase 4 (PAK4) (human (endogenous in KYSE150 and KYSE450)) (UniProt O96013)
Assay: co-IP; endogenous PAK4 precipitated with PAK4 antibody and protein A/G agarose beads from KYSE150 and KYSE450 lysates (50 mM Tris-HCl pH 8.0, 0.5% NP40, 150 mM NaCl, 4 °C overnight); cells treated with 5 μM Nuplazid or DMSO for 24 h; western blot for MAPK1 / p-MAPK1 T185/Y187

MAPK1 (from UniProt P28482 1-360) (enzyme)
binding: binds
